Laboratory results taken from PMC12592187.
Results are given in words; binding and its absence hold for the method and conditions named. Binding seen in cells or lysates may run through a third protein. Some entries that bind do so weakly or less than the wild type.

Protein sequences, listed by entry. Tags and fused reporters are not part of them. Residues count along the entry.
UniProt Q9QZH6, residues 49-435: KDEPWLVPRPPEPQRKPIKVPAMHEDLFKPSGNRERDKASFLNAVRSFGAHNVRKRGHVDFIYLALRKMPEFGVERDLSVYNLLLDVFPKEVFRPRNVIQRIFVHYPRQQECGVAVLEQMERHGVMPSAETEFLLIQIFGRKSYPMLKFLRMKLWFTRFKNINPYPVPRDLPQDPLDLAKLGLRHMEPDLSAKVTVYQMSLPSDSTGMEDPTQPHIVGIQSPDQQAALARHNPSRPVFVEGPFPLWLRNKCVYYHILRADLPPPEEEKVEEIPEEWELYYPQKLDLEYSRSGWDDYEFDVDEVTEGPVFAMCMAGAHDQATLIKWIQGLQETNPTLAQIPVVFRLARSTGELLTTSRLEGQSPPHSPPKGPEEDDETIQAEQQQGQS

Target: evolutionarily conserved signaling intermediate in Toll pathways (ECSIT), endogenous in RAW264.7 (mouse (endogenous in RAW264.7)) (UniProt Q9QZH6)
Assay: co-IP

B1: TNF receptor-associated factor 6 (TRAF6), endogenous in RAW264.7 (protein, UniProt P70196 1-530)
chain: MSLLNCENSCGSSQSSSDCCAAMAASCSAAVKDDSVSGSASTGNLSSSFMEEIQGYDVEFDPPLESKYECPICLMALREAVQTPCGHRFCKACIIKSIRDAGHKCPVDNEILLENQLFPDNFAKREILSLTVKCPNKGCLQKMELRHLEDHQVHCEFALVNCPQCQRPFQKCQVNTHIIEDCPRRQVSCVNCAVSMAYEEKEIHDQSCPLANIICEYCGTILIREQMPNHYDLDCPTAPIPCTFSVFGCHEKMQRNHLARHLQENTQLHMRLLAQAVHNVNLALRPCDAASPSRGCRPEDPNYEETIKQLESRLVRQDHQIRELTAKMETQSMYVGELKRTIRTLEDKVAEMEAQQCNGIYIWKIGNFGMHLKSQEEERPVVIHSPGFYTGRPGYKLCMRLHLQLPTAQRCANYISLFVHTMQGEYDSHLPWPFQGTIRLTILDQSEALIRQNHEEVMDAKPELLAFQRPTIPRNPKGFGYVTFMHLEALRQGTFIKDDTLLVRCEVSTRFDMGGLRKEGFQPRSTDAGV
- binding: binds
